Source: patent CN110885375A
Residue numbers refer to the chain shown, from its start. These are yes or no findings as the source states them, for the method shown. Some entries that bind do so weakly or less than the wild type.

Amino acid sequences for entries named in this document (tags omitted). Residues count along the entry.
UniProt P14780, residues 20-707: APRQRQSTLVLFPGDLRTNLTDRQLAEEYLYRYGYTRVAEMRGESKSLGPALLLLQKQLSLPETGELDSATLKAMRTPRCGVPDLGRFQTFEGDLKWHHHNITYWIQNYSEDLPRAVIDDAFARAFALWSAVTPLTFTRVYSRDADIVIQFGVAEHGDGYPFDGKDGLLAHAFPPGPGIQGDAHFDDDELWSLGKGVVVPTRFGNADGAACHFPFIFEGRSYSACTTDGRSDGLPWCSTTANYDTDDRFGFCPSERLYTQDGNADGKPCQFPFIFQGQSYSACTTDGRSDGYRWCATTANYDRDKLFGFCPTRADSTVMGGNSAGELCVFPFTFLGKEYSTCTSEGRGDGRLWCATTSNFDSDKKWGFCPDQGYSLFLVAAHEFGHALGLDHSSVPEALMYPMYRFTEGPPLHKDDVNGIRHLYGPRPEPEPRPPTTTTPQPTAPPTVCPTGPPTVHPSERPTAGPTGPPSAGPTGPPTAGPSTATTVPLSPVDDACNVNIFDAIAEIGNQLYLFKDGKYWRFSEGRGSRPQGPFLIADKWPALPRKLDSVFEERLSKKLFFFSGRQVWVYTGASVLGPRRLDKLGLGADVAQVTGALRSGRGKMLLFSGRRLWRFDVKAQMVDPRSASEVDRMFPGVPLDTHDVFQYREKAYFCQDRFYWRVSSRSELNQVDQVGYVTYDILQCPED

B1: SEQ ID NO 11 (VHH)
VHH: QVQLQESGGGSVQAGGSLRLSCVASGYTYCGYRMSWYRQAPGKEREFVSAIRGDGSTSYADSVKGRFTISQDNAKNTVYLQMNSLKPEDTAMYYCKADHSWDFTPRCPTQIWGQGTQVTVSS
B2: SEQ ID NO 14 (VHH)
VHH: B1 VHH with A14S, Q110S
B3: SEQ ID NO 13 (VHH)
VHH: B1 VHH with G16E, Q110S
B4: SEQ ID NO 12 (VHH)
VHH: B1 VHH with Q110S
B5: SEQ ID NO 8 (VHH)
VHH: QVQLQESGGGSVQAGGSLRLSCAASTASGYSDCRYRMSWYRRAPGKEREFVSSIWSDGSIRYADSVKGRFTISQDNAKNTMYLQMNSLKPEDTAMYFCKADLSIWSGRCPNTWGQGTQVTVSS
B6: SEQ ID NO 4 (VHH)
VHH: QVQLQESGGGSVQTGGSLRLSCAASSYTFSTSCVAWFRQAPGKEREGVAGILFNGLTSYTDSVKGRFTVSKDNAKNTLYLQMNSLKPEDTAMYYCAAVSSPAGCLAPLRADSYTYWGQGTQVTVSS
B7: SEQ ID NO 1 (VHH)
VHH: QVQLQESGGGSVQAGGSLRLSCAVSGYDLSSYCMGWFRQAPGKAREGVAAIEKFGVPIYADSVKGRFAASKDYAKNTVYLQMNGLKPEDTAMYYCAADRYCGAGPLEPLRYRYWGQGTQVTVSS
B8: SEQ ID NO 10 (VHH)
VHH: QVQLQESGGGSVQAGGSLRLSCAASGYTYCGYRMSWYRQAPGKEREFVSSMRADGSTSYADSVKGRFTISQDNAKNILYLQMNSLKPEDTAMYYCKADLSTRYSTYADCPNKWGQGTQVTVSS

biological target: MMP-9蛋白 (基质金属蛋白酶-9) (UniProt P14780); test: ELISA of crude periplasmic extracts on coated protein, anti-HA detection; positive if OD450 > 5x control well

binding, binds:
B1
B2
B3
B4
B5
B6
B7
B8

biological target: MMP-9蛋白 (基质金属蛋白酶-9) (UniProt P14780); test: ELISA of purified antibody on coated antigen, HRP anti-HA or anti-human Fc detection, OD450

binding, binds:
B1
B2
B3
B4
B5
B6
B7
B8
